Data published in US20080267953A1 (Kyowa Kirin, published 2008).
Where a chain is given by its changes, count along the chain named. Results are given in words; binding and its absence hold for the method and conditions named. Some results given as binding are weak or reduced against the parent protein; the word gives no strength. Values belong to the binder of their own block, whether it stands above or below them.

Experiments:
[1] = target: polypeptide encoded by the human PERP gene, endogenously expressed on human cancer cell lines (PC9 / PC-9, Colo 205) (human) (UniProt Q96FX8); assay: flow cytometry on PC-9 cells
[2] = target: human PERP with C-terminal myc-His tag expressed on CHO/DG44 cells from plasmid pcPERPmH (human) (UniProt Q96FX8); assay: flow cytometry on CHO/PERP (KC1359)
[3] = target: human PERP with C-terminal myc-His tag expressed on CHO/DG44 cells from plasmid pcPERPmH (human) (UniProt Q96FX8); assay: flow cytometry on CHO/PERP

binding [1]: binds
binding [2]: binds
B1: anti-PERP humanized antibody HV5-2LV4 (antibody, V domains shown)
VH: QVQLQESGPGLVKPSQTLSLTCTVSGFSITTEYAWNWIRQPPGKGLEWMGYIGYTGRTNYAPSLKSRITISRDTSKNQFSLQLSSVTAEDTATYYCTRMDYWGQGTLVTVSS
VL: DIQMTQSPSSLSASVGDRVTITCSASSSVSYMHWFQQKPGKAPKLWIYSTSNLASGVPSRFSGSGSGTDYTLTISSMQPEDFATYYCQQRSSYPPTFGQGTKVEIK

binding [3]: binds
binding [1]: binds
binding [2]: binds
B2: anti-PERP humanized antibody HV5-3LV4 (antibody, V domains shown)
VH: B1 VH with T30S, P41F
VL: B1 VL

binding [1]: binds
binding [2]: binds
B3: anti-PERP humanized antibody HV4LV5-2 (antibody, V domains shown)
VH: B1 VH with T30S, P41F, M49I
VL: B1 VL with F35Y, A42S, D69S, T71S, M77L

binding [2]: binds
B4: anti-PERP humanized antibody HV4LV2 (antibody, V domains shown)
VH: B1 VH with T30S, P41F, M49I
VL: B1 VL with F35Y, M77L
